13 compounds from patent publication US20260079169A1, “VOLATILE ORGANIC COMPOUNDS AS MARKERS FOR CELLULAR COMMUNICATION” (Technion Research and Development Foundation Limited, priority 2020, published 2026) can be followed below.

Where two headings read alike, the source gives them in different places. No dose or concentration is given here for some results.

For data set [1], the system named is A549, H1299, H1975 human lung cancer lines and BEAS-2B normal cell line, each cultured alone. The data set can be described thus: VOCs headspace analysis (ITEX GC-MS) of mono-culture groups (Format-1), bulk cell samples 1×10^4 cells. On the set-up: key to Category (VOC increased or decreased relative to the control): ↑: Increased; ↓: decreased; ↑*: <0.01; ↑**: <0.001. It counts as cell-based.

The subject of data set [2] is different-cell pairs of BEAS-2B, A549, H1299, H1975 without physical contact under a mutual headspace. The data set can be described thus: VOCs headspace analysis (ITEX GC-MS) of different-cell pair co-culture headspace groups (Format-3), bulk cell samples. It counts as cell-based, human. On the set-up: key to Category (VOC increased or decreased relative to the control): ↑: Increased; ↓: decreased; ↑*: <0.01; ↑**: <0.001.

[3] abbreviates: A (BEAS-2B) mono-culture, bulk 1 × 10^4 cell.
Where [4] appears, read: B (A549) mono-culture, bulk 1 × 10^4 cell.
[5] abbreviates: C (H1299) mono-culture, bulk 1 × 10^4 cell.
Setting [6] is: D (H1975) mono-culture, bulk 1 × 10^4 cell.
[7] abbreviates: A + B (BEAS-2B + A549), bulk 1 × 10^4 cell.
[8] abbreviates: A + C (BEAS-2B + H1299), bulk 1 × 10^4 cell.
Where [9] appears, read: A + D (BEAS-2B + H1975), bulk 1 × 10^4 cell.
Where [10] appears, read: B + C (A549 + H1299), bulk 1 × 10^4 cell.
[11] abbreviates: B + D (A549 + H1975), bulk 1 × 10^4 cell.
The mark [12] stands for this setting: C + D (H1299 + H1975), bulk 1 × 10^4 cell.

Regarding `CCCCC(C)C(C)CCC` (centres unmarked) [VOC12], the “VOC level in headspace, area under curve (AUC) normalized by STD AUC” value (from here on “VOC level … (AUC) normalized by STD AUC”) in data set [1] (setting [3]), in data set [1] (setting [4]), in data set [1] (setting [5]), in data set [1] (setting [6]), in data set [2] (setting [7]) and in data set [2] (setting [8]) was 0 throughout. Moreover, the “VOC level … (AUC) normalized by STD AUC” value in data set [2] (setting [9]), in data set [2] (setting [10]), in data set [2] (setting [11]) and in data set [2] (setting [12]) was 0 throughout.
With `CCCCC(C)=O` [VOC93], the “VOC level … (AUC) normalized by STD AUC” value turned out to be 0 in data set [1] (setting [3]); 7.399 in data set [1] (setting [4]); 0 in data set [1] (setting [5]); 8.535 in data set [1] (setting [6]); 6.612 in data set [2] (setting [7]); 0 in data set [2] (setting [8]). In addition, the “VOC level … (AUC) normalized by STD AUC” value is on record as 6.874 in data set [2] (setting [9]), 3.654 in data set [2] (setting [10]), 8.676 in data set [2] (setting [11]) and 1.978 in data set [2] (setting [12]).
As to `CC(O)(C(=O)O)C(=O)O` [VOC77], the “VOC level … (AUC) normalized by STD AUC” value in data set [1] (setting [3]) is 0; in data set [1] (setting [4]), 0; in data set [1] (setting [5]) it was 0; in data set [1] (setting [6]), 7.098; in data set [2] (setting [7]), 0; in data set [2] (setting [8]), 0. Moreover, the “VOC level … (AUC) normalized by STD AUC” value in data set [2] (setting [9]) is recorded as 6.282; in data set [2] (setting [10]), 0; in data set [2] (setting [11]), 5.793; in data set [2] (setting [12]), 2.664.
As to `CC(=O)CCCCC(Cl)Cl` [VOC103], in data set [1] (bulk 1 × 10^4 cell, A: BEAS-2B mono-culture headspace), the “VOC area under curve (AUC) normalized by STD AUC, A” value came out at 4.213. Besides, the “VOC area under curve (AUC) normalized by STD AUC, B” value in data set [1] (bulk 1 × 10^4 cell, B: A549 mono-culture headspace) amounted to 0. In data set [1] (bulk 1 × 10^4 cell, C: H1299 mono-culture headspace), the “VOC area under curve (AUC) normalized by STD AUC, C” value stood at 0. For the same compound, the “VOC area under curve (AUC) normalized by STD AUC, D” value in data set [1] (bulk 1 × 10^4 cell, D: H1975 mono-culture headspace) is on record as 4.11. In addition, the “VOC area under curve (AUC) normalized by STD AUC, B + C” value in data set [2] (bulk 1 × 10^4 cell, A549 + H1299) was determined as 0. The “VOC area under curve (AUC) normalized by STD AUC, B + D” value in data set [2] (bulk 1 × 10^4 cell, A549 + H1975) turned out to be 0. The “VOC area under curve (AUC) normalized by STD AUC, A + B” value in data set [2] (bulk 1 × 10^4 cell, BEAS-2B + A549) is recorded as 3.917. Further, the “VOC area under curve (AUC) normalized by STD AUC, A + C” value in data set [2] (bulk 1 × 10^4 cell, BEAS-2B + H1299) is on record as 3.297. Besides, the “VOC area under curve (AUC) normalized by STD AUC, A + D” value in data set [2] (bulk 1 × 10^4 cell, BEAS-2B + H1975) amounted to 8.44.
As for `CCCCCCCCC=O` [VOC5], the “VOC level … (AUC) normalized by STD AUC” value is 0 in data set [1] (setting [3]); 5.353 in data set [1] (setting [4]); 0.0524 in data set [1] (setting [5]); 5.827 in data set [1] (setting [6]); 9.91 in data set [2] (setting [7]); 3.842 in data set [2] (setting [8]). Also, the “VOC level … (AUC) normalized by STD AUC” value was 0 in data set [2] (setting [9]), 0 in data set [2] (setting [10]), 7.88 in data set [2] (setting [11]) and 0 in data set [2] (setting [12]).
Turning to `COC(=O)CCC(=O)OC` [Dimethyl succinate], the “Category (VOC increased or decreased relative to the control)” value is listed as “↑** (↑**: <0.001)” in data set [1] (mono-culture groups (Format-1), 48 h incubation, averaged peak area (n = 3)) and “↑* (↑*: <0.01)” in data set [2] (different-cell pair co-culture headspace (Format-3), 48 h, averaged peak area (n = 3)).
`CN(C)c1cc(C(=O)O)cc(C(=O)O)c1` [VOC52]: the “VOC level … (AUC) normalized by STD AUC” value is 4.471 in data set [1] (setting [3]); 0 in data set [1] (setting [4]); 3.7782 in data set [1] (setting [5]); 0 in data set [1] (setting [6]); 3.328 in data set [2] (setting [7]); 2.88 in data set [2] (setting [8]). Also, the “VOC level … (AUC) normalized by STD AUC” value came out at 1.131 in data set [2] (setting [10]), 0 in data set [2] (setting [11]) and 0 in data set [2] (setting [12]).
For `Oc1ccccc1` [Phenol], the “Category (VOC increased or decreased relative to the control)” value in data set [1] and in data set [2] was “↓” in each case.
Turning to `CCCCOC(=O)c1ccc(O)cc1` [Butylparaben], the “Category (VOC increased or decreased relative to the control)” value in data set [1] (mono-culture groups (Format-1), 72 h incubation, averaged peak area (n = 3)) was “↑”; in data set [2] (different-cell pair co-culture headspace (Format-3), 24 h, averaged peak area (n = 3)), “↑”.
Consider `CC(CC(C)(C)C)CC(C)(C)C` [VOC25], for which the “VOC level … (AUC) normalized by STD AUC” value in data set [1] (setting [3]) is reported as 0; in data set [1] (setting [4]), 3.229; in data set [1] (setting [5]), 0; in data set [1] (setting [6]) it was 7.437; in data set [2] (setting [7]), 2.599; in data set [2] (setting [8]) it was 0. The “VOC level … (AUC) normalized by STD AUC” value in data set [2] (setting [9]) is 0; in data set [2] (setting [10]), 3.879; in data set [2] (setting [11]) it was 9.241; in data set [2] (setting [12]), 2.6295.
For `O=Cc1ccccc1` [VOC2], the “VOC level … (AUC) normalized by STD AUC” value was 0 in data set [1] (setting [3]); 0 in data set [1] (setting [4]); 0 in data set [1] (setting [5]); 0 in data set [1] (setting [6]); 9.291 in data set [2] (setting [7]); 6.46 in data set [2] (setting [8]). Further, the “VOC level … (AUC) normalized by STD AUC” value in data set [2] (setting [9]) came to 6.343; in data set [2] (setting [10]) it was 7.116; in data set [2] (setting [11]) it was 3.98; in data set [2] (setting [12]), 7.712.
Turning to `COc1ccc(C=CC(=O)O)cc1OC` [VOC83], the “VOC level … (AUC) normalized by STD AUC” value in data set [1] (setting [3]) was found to be 0; in data set [1] (setting [4]) it was 0; in data set [1] (setting [5]) it was 0; in data set [1] (setting [6]), 5.179; in data set [2] (setting [7]), 0; in data set [2] (setting [8]) it was 0. Also, the “VOC level … (AUC) normalized by STD AUC” value in data set [2] (setting [9]) is reported as 3.877; in data set [2] (setting [10]) it was 0; in data set [2] (setting [11]) it was 2.754; in data set [2] (setting [12]), 0.2906.
On to `CCCCCCCCCCCCCCC=O` [VOC4], for which the “VOC level … (AUC) normalized by STD AUC” value in data set [1] (setting [3]), in data set [1] (setting [4]), in data set [1] (setting [5]), in data set [1] (setting [6]), in data set [2] (setting [7]) and in data set [2] (setting [8]) was 0 each time. Besides, the “VOC level … (AUC) normalized by STD AUC” value in data set [2] (setting [9]), in data set [2] (setting [10]), in data set [2] (setting [11]) and in data set [2] (setting [12]) was 0 each time.
